Data: publication PMC7437997
For at least one entry, the source does not settle the construct or the ends of the probe.

Key:
[1] = biological target: Lhr (archaeal Lhr, Mth1802) (Methanothermobacter thermautotrophicus ΔH) (UniProt O27830); test: EMSA; settings: room temperature, 10 nM DNA, 100 nM Lhr, +/- ATP and MgCl2, 5% acrylamide TBE gel, recombinant protein
[2] = biological target: Lhr (archaeal Lhr, Mth1802) (Methanothermobacter thermautotrophicus ΔH) (UniProt O27830); test: smFRET; settings: 1 µM Lhr, 5' biotin on S18, smFRET: 1 µM Lhr, RT or 45°C, recombinant protein

Measured: binding result

ATCGATAGTCTCTAGACAGTATGTCCTAGCAAGCCAGAATTCGGCAGCGT / GGACATACTGTCTAGAGACTATCGAT / GACGCTGCCGAATTCTGGCTTGCTATGTAAATCTTTGCCCACGTTGACCC / GGGTCAACGTGGGCAAAGATTTACA [fork-2 (ATTO 532/ATTO 647N labelled FRET fork)]
binds: [1]; ATP-Mg2+, Lhr-bound two-strand unwinding product, 5' biotin on S18, EMSA: buffer HB (20 mM Tris-HCl pH 7.5, 2 mM DTT, 100 µg/ml BSA, 7% glycerol) | [1]; no ATP, 5' biotin on S18, EMSA: buffer HB (20 mM Tris-HCl pH 7.5, 2 mM DTT, 100 µg/ml BSA, 7% glycerol) | [2]; 45°C, 1 mM MgCl2, 2 mM ATP, E ~ 0, fork mostly unwound | [2]; 45°C, no ATP-Mg2+, new populations E = 0.50, 0.92 and 0.12 | [2]; room temperature, no ATP-Mg2+, E shifts 0.72 to 0.78
